# Percent effect of library compounds

Amino acid sequences for entries named in this document (tags omitted). Residues count along the entry.
UniProt Q4DA54, 1-478: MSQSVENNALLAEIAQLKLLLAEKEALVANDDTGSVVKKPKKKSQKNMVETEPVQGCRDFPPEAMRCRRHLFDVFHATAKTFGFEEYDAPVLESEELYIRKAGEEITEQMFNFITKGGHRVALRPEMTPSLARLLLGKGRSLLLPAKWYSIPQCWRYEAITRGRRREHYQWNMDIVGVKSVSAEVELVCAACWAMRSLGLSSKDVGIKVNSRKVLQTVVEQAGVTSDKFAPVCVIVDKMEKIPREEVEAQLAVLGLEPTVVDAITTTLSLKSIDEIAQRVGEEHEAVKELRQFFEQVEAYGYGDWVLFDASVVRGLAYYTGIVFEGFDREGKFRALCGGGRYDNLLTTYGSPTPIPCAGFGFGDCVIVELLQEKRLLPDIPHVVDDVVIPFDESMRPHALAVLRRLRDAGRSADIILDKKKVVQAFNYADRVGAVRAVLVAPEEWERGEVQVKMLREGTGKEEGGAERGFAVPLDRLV
UniProt P9WPC5, whole entry: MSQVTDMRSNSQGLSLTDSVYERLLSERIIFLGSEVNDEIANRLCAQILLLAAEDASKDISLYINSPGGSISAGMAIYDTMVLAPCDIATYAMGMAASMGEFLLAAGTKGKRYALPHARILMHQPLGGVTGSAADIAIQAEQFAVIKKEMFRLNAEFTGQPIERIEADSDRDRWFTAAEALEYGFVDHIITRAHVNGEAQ
UniProt P9WPC3, whole entry partner: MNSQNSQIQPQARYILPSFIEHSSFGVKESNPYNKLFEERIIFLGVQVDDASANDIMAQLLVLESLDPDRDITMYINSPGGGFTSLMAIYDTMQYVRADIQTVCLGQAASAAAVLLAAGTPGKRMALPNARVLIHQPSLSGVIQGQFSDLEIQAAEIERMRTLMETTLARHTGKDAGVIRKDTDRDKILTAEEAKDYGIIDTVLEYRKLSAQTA

Each number is a percent effect as filed.
The record does not define 0% and 100%; most values in the screen are far below 50% and negative numbers occur (in some assays of this library far below -100).
The compounds are a random part of those screened.

TcHisRS: 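Enzyme assay of histidyl-tRNA synthetase; the read-out is not stated. Target: Histidine-tRNA ligase, Trypanosoma cruzi CL Brener (UniProt Q4DA54). Tested at 30 µM. The record gives no direction; compounds that gave an IC50 in retests scored well above the rest, so higher reads as stronger inhibition. About 69,000 compounds were tested under these conditions; 0.045% (about 31) showed 50% or more at least once.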
ClpP1P2: 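Protease assay of ClpP1P2, read by the AMC dye that it sets free. Target: ClpP1P2, Mycobacterium tuberculosis (UniProt P9WPC5 and UniProt P9WPC3). Tested at 50 µM. Direction is inferred from only a few compounds that gave an IC50; most scored high, so higher reads as stronger inhibition. Most other retested compounds had strongly negative values. Of about 69,000 compounds tested this way, about 10 (0.015%) reached 50% or more in at least one test.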

* Cc1cc(CC(=O)NCC(O)COc2ccc(F)c(F)c2)no1 (stereo not shown) : TcHisRS: 5.422%; ClpP1P2: -0.2679%
* CCC(CCNC(=O)c1cc(C2CC2)nc2c1cnn2C)n1cccn1 (stereo not shown) : TcHisRS: 0.5181%; ClpP1P2: 2.673%
* c1ccc(CN2CCN3C[C@H](Oc4cncnc4)C[C@H]3C2)nc1 : TcHisRS: 3.315%; ClpP1P2: -9.423%
* Cc1ncsc1C(=O)N1CCC(c2ncncc2-c2ccnc(N)c2)C1 (stereo not shown) : TcHisRS: 5.385%; ClpP1P2: -12.29%
* CCOc1ncccc1NC(=O)c1ccc(C)s1 : TcHisRS: 4.018%; ClpP1P2: -9.98%
* c1cc(C2CCN(Cc3nc(C4CC4)no3)CC2)[nH]n1 : TcHisRS: 3.093%; ClpP1P2: -10.98%
* CCCOc1ccc(Cl)cc1CNc1ncnc2oc(C)nc12 : TcHisRS: 15.48%; ClpP1P2: -7.848%
* Cc1csc(C2(NC(=O)CCc3ccncc3)CCCC2)n1 : TcHisRS: 5%; ClpP1P2: -10.58%
* O=C(c1cc[nH]n1)N1CCC(Nc2cccnn2)CC1 : TcHisRS: -1.132%; ClpP1P2: 2.989%
* CNc1ccnc(N2C[C@@H](C)[C@](O)(C3CC3)C2)n1 : TcHisRS: 0.6452%; ClpP1P2: -4.498%
* O=C1CC(c2ccc3c(c2)OCO3)c2c(n3ccsc3nc2=O)N1 (stereo not shown) : TcHisRS: -1.754%; ClpP1P2: -1.417%
* CC(C)(C)c1n[nH]c(C2CN(C(=O)CCC3CC3)CCO2)n1 (stereo not shown) : TcHisRS: -2.29%; ClpP1P2: 1.904%
* Cc1nc(-c2ccsc2)ccc1C(=O)NCCC1CCCO1 (stereo not shown) : TcHisRS: 1.141%; ClpP1P2: 2.779%
* CCCC(=O)N1CCC(O)(Cn2c(CC)nc3ccccc3c2=O)CC1 : TcHisRS: -1.622%; ClpP1P2: 2.463%
* O=C(NCCNc1ncccn1)C1CC(=O)N(CC(F)(F)F)C1 (stereo not shown) : TcHisRS: 3.008%; ClpP1P2: 1.542%
* CCc1noc(CN(CC)C(=O)C2CC(=O)N(Cc3ccncc3)C2)n1 (stereo not shown) : TcHisRS: -1.288%; ClpP1P2: 13.79%
* Cc1cc(NC2CC3(CCN(Cc4ncccc4F)C3)C2)ncn1 (stereo not shown) : TcHisRS: 0.2857%; ClpP1P2: -2.649%
* Cn1cccc1C(=O)N1C[C@H]2CC[C@@H]1CN(Cc1cscn1)C2 : TcHisRS: 2.424%; ClpP1P2: -10.77%
* COC[C@@H]1CCC[C@@]12CN(Cc1ccco1)CCO2 : TcHisRS: 7.317%; ClpP1P2: -6.745%
* O=C(Nc1nncs1)N1CCC(c2ccc(O)cc2)CC1 : TcHisRS: 3.96%; ClpP1P2: -2.745%
* Cc1cc(C)c(CNC(=O)N2CCC(N3CCCC3)CC2)c(=O)[nH]1 : TcHisRS: 5.155%; ClpP1P2: -4.05%
* CCOC(=O)C1CCCN(c2ccc(-c3nc(C)no3)cn2)C1 (stereo not shown) : TcHisRS: 2.905%; ClpP1P2: -14.9%
* O=C(C1CCOCC1)N1C[C@@H]2C[C@@H](c3nc(C4CC4)cs3)O[C@@H]2C1 : TcHisRS: 4.959%; ClpP1P2: 7.34%
* Cc1ccc(C2(CN3CCCC3)CCNCC2)nc1 : TcHisRS: 4.167%; ClpP1P2: -4.906%
* COCc1c(C(=O)N2CCCC(C(=O)c3nccn3C)C2)noc1C (stereo not shown) : TcHisRS: 7.778%; ClpP1P2: 5.471%
* CCOc1ccccc1C(=O)Oc1cc(=O)n2cccc(C)c2n1 : TcHisRS: 39.02%; ClpP1P2: 1.297%
* Cn1cc(CN2CCc3ncn(C)c3C2COCc2ccccc2)cn1 (stereo not shown) : TcHisRS: 6.468%; ClpP1P2: -9.702%
* O=c1[nH]c2c(c(=O)n1C1CCCCC1)CCC2Nc1ccccc1Cl (stereo not shown) : TcHisRS: -0.5464%; ClpP1P2: 0.2571%
* COCCc1noc(CNC2CCc3nc(C(C)C)nn3C2)n1 (stereo not shown) : TcHisRS: 1.887%; ClpP1P2: -1.457%

2 of the entries, repeated:

COCc1c(C(=O)N2CCCC(C(=O)c3nccn3C)C2)noc1C (stereo not shown) read TcHisRS: 7.778%; ClpP1P2: 5.471%.
O=C(NCCNc1ncccn1)C1CC(=O)N(CC(F)(F)F)C1 (stereo not shown) read TcHisRS: 3.008%; ClpP1P2: 1.542%.

Source: ChEMBL document CHEMBL3988442, “University of Dundee, Small-Polar-MMV Screening Library” (2021).